# Source: the supplement of paper PMC8728848
# The list shows a part of the results.
# B1: PP2A1 (Arabidopsis thaliana) (protein)
# chain: MFRNQDSKYLIPVQKEAPPVTTLPMKASTVKSPHNCEAILRDADPPISLSSVNLSEQLRSGVFLKPKKQIKYWVDERNSNCFMLFAKNLSITWSDDVNYWTWFTEKESPNENVEAVGLKNVCWLDITGKFDTRNLTPGIVYEVVFKVKLEDPAYGWDTPVNLKLVLPNGKEKPQEKKVSLRELPRYKWVDVRVGEFVPEKSAAGEITFSMYEHAAGVWKKGLSLKGVAIRPKQHHHHHH
# What was measured:
# Assay in all cases: glycan array binding signal (z-score within array); higher = stronger binding
# Details in all cases: glycan notation: IUPAC condensed, linker removed
# [1] = target: Fuc(a1-2)[Gal(a1-3)]Gal(b1-4)GlcNAc(b1-2)Man(a1-3)[Fuc(a1-2)[Gal(a1-3)]Gal(b1-4)GlcNAc(b1-2)Man(a1-6)]Man(b1-4)GlcNAc(b1-4)GlcNAc
# Summary of the method: (§1)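 The binding signal is a Z-score computed within each array. Data were drawn from 3228 arrays in the Consortium for Functional Glycomics database, restricted to those with a known protein sequence. Scores were averaged over arrays of the same protein sequence at different concentrations or buffers, and over linkers, and negative values can be taken as non-binding.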
# [2] = target: Fuc(a1-2)[Gal(a1-3)]Gal(b1-4)[Fuc(a1-3)]GlcNAc
# Summary of the method: as §1
# [3] = target: Fuc(a1-2)[Gal(a1-4)]Gal(b1-4)GlcNAc
# Summary of the method: as §1
# [4] = target: Fuc(a1-2)[GalNAc(a1-3)]Gal
# Summary of the method: as §1
# [5] = target: Fuc(a1-2)[GalNAc(a1-3)]Gal(b1-3)GlcNAc
# Summary of the method: as §1
# [6] = target: Fuc(a1-2)[GalNAc(a1-3)]Gal(b1-3)GlcNAc(b1-2)Man(a1-3)[Fuc(a1-2)[GalNAc(a1-3)]Gal(b1-3)GlcNAc(b1-2)Man(a1-6)]Man(b1-4)GlcNAc(b1-4)GlcNAc
# Summary of the method: as §1
# [7] = target: Fuc(a1-2)[GalNAc(a1-3)]Gal(b1-4)Glc
# Summary of the method: as §1
# [8] = target: Fuc(a1-2)[GalNAc(a1-3)]Gal(b1-4)GlcNAc
# Summary of the method: as §1
# [9] = target: Fuc(a1-2)[GalNAc(a1-3)]Gal(b1-4)GlcNAc(b1-2)Man(a1-3)[GalNAc(a1-3)[Fuc(a1-2)]Gal(b1-4)GlcNAc(b1-2)Man(a1-6)]Man(b1-4)GlcNAc(b1-4)GlcNAc
# Summary of the method: as §1
# [10] = target: Fuc(a1-2)[GalNAc(a1-3)]Gal(b1-4)GlcNAc(b1-3)Gal(b1-4)GlcNAc
# Summary of the method: as §1
# [11] = target: Fuc(a1-2)[GalNAc(a1-3)]Gal(b1-4)GlcNAc(b1-3)Gal(b1-4)GlcNAc(b1-3)Gal(b1-4)GlcNAc
# Summary of the method: as §1
# [12] = target: Fuc(a1-2)[GalNAc(a1-3)]Gal(b1-4)[Fuc(a1-3)]GlcNAc
# Summary of the method: as §1
# [13] = target: Fuc(a1-2)[GalNAc(a1-4)]Gal(b1-4)GlcNAc
# Summary of the method: as §1
# [14] = target: Fuc(a1-2)[GalNAc(b1-3)]Gal
# Summary of the method: as §1
# Fuc(a1-3)GlcNAc = target: Fuc(a1-3)GlcNAc
# Summary of the method: as §1
# [15] = target: Fuc(a1-3)[Gal(b1-4)]Glc6S
# Summary of the method: as §1
# [16] = target: Fuc(a1-3)[Gal(b1-4)]GlcNAc
# Summary of the method: as §1
# [17] = target: Fuc(a1-3)[Gal(b1-4)]GlcNAc(b1-2)Man(a1-3)[Fuc(a1-3)[Gal(b1-4)]GlcNAc(b1-2)Man(a1-6)]Man(b1-4)GlcNAc(b1-4)GlcNAc
# Summary of the method: as §1
# [18] = target: Fuc(a1-3)[Gal(b1-4)]GlcNAc(b1-2)Man(a1-6)[Gal(b1-4)GlcNAc(b1-2)Man(a1-3)]Man(b1-4)GlcNAc(b1-4)GlcNAc
# Summary of the method: as §1
# [19] = target: Fuc(a1-3)[Gal(b1-4)]GlcNAc(b1-3)Gal(b1-3)[Fuc(a1-4)]GlcNAc
# Summary of the method: as §1
# [20] = target: Fuc(a1-3)[Gal(b1-4)]GlcNAc(b1-4)Gal(b1-4)[Fuc(a1-3)]GlcNAc
# Summary of the method: as §1
# [21] = target: Fuc(a1-3)[Gal(b1-4)]GlcNAc(b1-4)Gal(b1-4)[Fuc(a1-3)]GlcNAc(b1-4)Gal(b1-4)[Fuc(a1-3)]GlcNAc
# Summary of the method: as §1
# [22] = target: Fuc(a1-3)[Gal(b1-4)]GlcNAc6S
# Summary of the method: as §1
# [23] = target: Fuc(a1-3)[Gal3S(b1-4)]Glc6S
# Summary of the method: as §1
# [24] = target: Fuc(a1-3)[Gal3S(b1-4)]GlcNAc
# Summary of the method: as §1
# [25] = target: Fuc(a1-3)[Gal3S(b1-4)]GlcNAc6S
# Summary of the method: as §1
# [26] = target: Fuc(a1-3)[GalNAc(b1-4)]GlcNAc
# Summary of the method: as §1
# [27] = target: Fuc(a1-3)[Neu5Ac(a2-3)]Gal(b1-4)GlcNAc(b1-3)GalNAc
# Summary of the method: as §1
# Fuc(a1-4)GlcNAc = target: Fuc(a1-4)GlcNAc
# Summary of the method: as §1
# Fuc(b1-3)GlcNAc = target: Fuc(b1-3)GlcNAc
# Summary of the method: as §1
# Gal(a1-2)Gal = target: Gal(a1-2)Gal
# Summary of the method: as §1
# Gal(a1-3)Gal = target: Gal(a1-3)Gal
# Summary of the method: as §1
# Gal(a1-3)Gal(b1-3)GlcNAc = target: Gal(a1-3)Gal(b1-3)GlcNAc
# Summary of the method: as §1
# Gal(a1-3)Gal(b1-4)Glc = target: Gal(a1-3)Gal(b1-4)Glc
# Summary of the method: as §1
# Gal(a1-3)Gal(b1-4)GlcNAc = target: Gal(a1-3)Gal(b1-4)GlcNAc
# Summary of the method: as §1
# [28] = target: Gal(a1-3)Gal(b1-4)[Fuc(a1-3)]GlcNAc
# Summary of the method: as §1
# [29] = target: Gal(a1-3)Gal(b1-4)[Fuc(a1-3)]GlcNAc(b1-2)Man(a1-3)[Gal(a1-3)Gal(b1-4)[Fuc(a1-3)]GlcNAc(b1-2)Man(a1-6)]Man(b1-4)GlcNAc(b1-4)GlcNAc
# Summary of the method: as §1
# Gal(a1-3)GalNAc = target: Gal(a1-3)GalNAc
# Summary of the method: as §1
# [30] = target: Gal(a1-3)[Gal(a1-4)]Gal(b1-4)GlcNAc
# Summary of the method: as §1
# Gal(a1-4)Gal(b1-4)Glc = target: Gal(a1-4)Gal(b1-4)Glc
# Summary of the method: as §1
# Gal(a1-4)Gal(b1-4)GlcNAc = target: Gal(a1-4)Gal(b1-4)GlcNAc
# Summary of the method: as §1
# [31] = target: Gal(a1-4)Gal(b1-4)GlcNAc(b1-3)Gal(b1-4)Glc
# Summary of the method: as §1
# Gal(a1-4)GlcNAc = target: Gal(a1-4)GlcNAc
# Summary of the method: as §1
# Gal(a1-6)Glc = target: Gal(a1-6)Glc
# Summary of the method: as §1
# Gal(b1-2)Gal = target: Gal(b1-2)Gal
# Summary of the method: as §1
binder,measurement,setting,value
B1,glycan array binding signal (z-score),[1],0.586
same,glycan array binding signal (z-score),[2],-0.138
same,glycan array binding signal (z-score),[3],-0.507
same,glycan array binding signal (z-score),[4],-0.564
same,glycan array binding signal (z-score),[5],-0.107
same,glycan array binding signal (z-score),[6],0.053
same,glycan array binding signal (z-score),[7],-0.724
same,glycan array binding signal (z-score),[8],-0.411
same,glycan array binding signal (z-score),[9],0.573
same,glycan array binding signal (z-score),[10],-0.018
same,glycan array binding signal (z-score),[11],0.059
same,glycan array binding signal (z-score),[12],-0.253
same,glycan array binding signal (z-score),[13],-0.398
same,glycan array binding signal (z-score),[14],-0.409
same,glycan array binding signal (z-score),Fuc(a1-3)GlcNAc,-0.591
same,glycan array binding signal (z-score),[15],-0.117
same,glycan array binding signal (z-score),[16],-0.005
same,glycan array binding signal (z-score),[17],-0.241
same,glycan array binding signal (z-score),[18],-1.1
same,glycan array binding signal (z-score),[19],-0.241
same,glycan array binding signal (z-score),[20],-0.014
same,glycan array binding signal (z-score),[21],-0.187
same,glycan array binding signal (z-score),[22],-0.097
same,glycan array binding signal (z-score),[23],0.302
same,glycan array binding signal (z-score),[24],-0.017
same,glycan array binding signal (z-score),[25],0.583
same,glycan array binding signal (z-score),[26],-0.418
same,glycan array binding signal (z-score),[27],-0.286
same,glycan array binding signal (z-score),Fuc(a1-4)GlcNAc,-0.047
same,glycan array binding signal (z-score),Fuc(b1-3)GlcNAc,-0.251
same,glycan array binding signal (z-score),Gal(a1-2)Gal,-0.291
same,glycan array binding signal (z-score),Gal(a1-3)Gal,-0.282
same,glycan array binding signal (z-score),Gal(a1-3)Gal(b1-3)GlcNAc,-0.586
same,glycan array binding signal (z-score),Gal(a1-3)Gal(b1-4)Glc,-0.621
same,glycan array binding signal (z-score),Gal(a1-3)Gal(b1-4)GlcNAc,-0.365
same,glycan array binding signal (z-score),[28],-0.34
same,glycan array binding signal (z-score),[29],-0.011
same,glycan array binding signal (z-score),Gal(a1-3)GalNAc,-0.032
same,glycan array binding signal (z-score),[30],0.221
same,glycan array binding signal (z-score),Gal(a1-4)Gal(b1-4)Glc,-0.181
same,glycan array binding signal (z-score),Gal(a1-4)Gal(b1-4)GlcNAc,-0.01
same,glycan array binding signal (z-score),[31],-0.305
same,glycan array binding signal (z-score),Gal(a1-4)GlcNAc,-0.224
same,glycan array binding signal (z-score),Gal(a1-6)Glc,0.289
same,glycan array binding signal (z-score),Gal(b1-2)Gal,-0.215

# 2 entries picked at random from those above, as already listed:
binder,measurement,setting,value
B1,glycan array binding signal (z-score),[20],-0.014
same,glycan array binding signal (z-score),[10],-0.018
